{"source": "patent US20260137774A1", "about": "“Hepatitis B Virus Receptor OATP and Use Thereof” (priority 2022, published 2026)", "key": {"human OATP1B3 (hOATP1B3)": {"molecular_target": "T1, human OATP1B3 (hOATP1B3) (Homo sapiens, UniProt Q9NPD5)", "T1 sequence (Q9NPD5 1-702)": "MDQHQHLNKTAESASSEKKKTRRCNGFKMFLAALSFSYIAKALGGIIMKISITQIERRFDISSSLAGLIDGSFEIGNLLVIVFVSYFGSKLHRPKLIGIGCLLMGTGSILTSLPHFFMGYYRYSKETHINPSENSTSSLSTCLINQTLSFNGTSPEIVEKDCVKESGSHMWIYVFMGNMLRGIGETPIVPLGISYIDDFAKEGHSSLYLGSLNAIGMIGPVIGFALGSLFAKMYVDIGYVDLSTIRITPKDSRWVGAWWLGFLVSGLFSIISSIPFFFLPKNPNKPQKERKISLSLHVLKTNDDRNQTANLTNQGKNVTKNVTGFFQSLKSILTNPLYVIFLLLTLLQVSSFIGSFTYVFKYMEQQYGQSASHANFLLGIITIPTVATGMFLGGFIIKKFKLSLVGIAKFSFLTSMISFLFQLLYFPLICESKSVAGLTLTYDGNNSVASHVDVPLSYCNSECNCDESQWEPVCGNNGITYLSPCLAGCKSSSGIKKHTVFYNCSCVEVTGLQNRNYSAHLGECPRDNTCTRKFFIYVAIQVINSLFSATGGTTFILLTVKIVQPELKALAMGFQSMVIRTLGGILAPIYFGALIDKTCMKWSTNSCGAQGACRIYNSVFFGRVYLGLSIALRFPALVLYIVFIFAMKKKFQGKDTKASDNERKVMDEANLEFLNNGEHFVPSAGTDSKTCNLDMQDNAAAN", "conditions": "pH 7.4"}, "human OATP1B1 (hOATP1B1)": {"molecular_target": "T2, human OATP1B1 (hOATP1B1) (Homo sapiens, UniProt Q9Y6L6)", "T2 sequence (Q9Y6L6 1-691)": "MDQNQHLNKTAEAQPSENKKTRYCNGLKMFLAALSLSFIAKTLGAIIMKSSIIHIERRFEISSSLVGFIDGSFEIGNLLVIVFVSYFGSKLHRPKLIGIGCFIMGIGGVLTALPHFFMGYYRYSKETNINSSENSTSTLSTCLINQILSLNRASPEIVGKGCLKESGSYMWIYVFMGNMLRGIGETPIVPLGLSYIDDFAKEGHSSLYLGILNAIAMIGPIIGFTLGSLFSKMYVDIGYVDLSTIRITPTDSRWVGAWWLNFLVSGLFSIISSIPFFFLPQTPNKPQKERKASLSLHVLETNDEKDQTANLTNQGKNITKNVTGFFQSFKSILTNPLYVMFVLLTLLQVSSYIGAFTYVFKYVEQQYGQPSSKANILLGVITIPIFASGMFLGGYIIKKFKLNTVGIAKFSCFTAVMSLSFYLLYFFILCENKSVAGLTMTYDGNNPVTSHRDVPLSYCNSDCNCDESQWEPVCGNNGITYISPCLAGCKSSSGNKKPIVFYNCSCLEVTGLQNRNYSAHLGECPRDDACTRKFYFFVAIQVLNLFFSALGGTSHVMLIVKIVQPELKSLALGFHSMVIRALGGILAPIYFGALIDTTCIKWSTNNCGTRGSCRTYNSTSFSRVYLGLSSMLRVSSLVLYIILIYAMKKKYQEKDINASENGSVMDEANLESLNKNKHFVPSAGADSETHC", "conditions": "pH 7.4"}}, "data": [{"smiles": "CC(C)c1c(C(=O)Nc2ccccc2)c(-c2ccccc2)c(-c2ccc(F)cc2)n1CC[C@@H](O)C[C@@H](O)CC(=O)O", "note": "[atorvastatin]", "values": [{"measurement": "uptake ratio of drug substrate", "setting": "human OATP1B3 (hOATP1B3)", "result": 8.58}, {"measurement": "uptake ratio of drug substrate", "setting": "human OATP1B1 (hOATP1B1)", "result": 6.32}]}]}
